Reference: PubChem BioAssay AID743121 (NCATS, 2013)
Here is an unselected part of about 26,000 reagents. Over the whole deposit, 167 (0.63%) got an active call. 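Calls are per gene from RSA p-values that are not deposited; an individual active-marked siRNA can sensitise only weakly.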 Reagents against one gene are numbered here. Further read-outs or replicates are left out here. Reagent sequences are not shown.

Screen: 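Partners whose loss is lethal together with topoisomerase I blockade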 (primary screen)
Cell system: MDA-MB-231 cells, a human breast cancer line
Knock-down reagent: single siRNA against human genes, 20 nM siRNA (0.8 pmol per well)
Timing: 120 h (drug added 48 h after transfection, read 72 h later)
Challenge: camptothecin 20 nM (about EC30) for 72 h; vehicle 0.1% DMSO in parallel plates
Measured: 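CellTiter-Glo ATP signal, scaled to control siRNA as percent viability; sensitisation given as log2 of untreated divided by camptothecin-treated viability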
Scale: log2 vehicle/camptothecin viability: higher = stronger sensitisation to camptothecin
Hit rule: 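Active genes have an RSA gene-level p-value below 0.001, computed from the ratios of their separate siRNAs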

log2 vehicle/camptothecin viability, by gene and reagent
GPR20: #1 -0.357 inactive; #2 -0.261 inactive; #3 -0.205 inactive; #4 0.546 inactive
APOB: #1 -0.145 inactive; #2 -0.0219 inactive; #3 -0.575 inactive; #4 -0.316 inactive
MAP2K5: #1 -0.00461 inactive; #2 0.0692 inactive; #3 0.215 inactive; #4 -0.301 inactive
MST1R: #1 -0.718 inactive; #2 0.289 inactive; #3 -0.142 inactive; #4 0.0768 inactive
APOE: #1 -0.211 inactive; #2 0.0921 inactive; #3 -0.197 inactive
FIBCD1: #1 -0.127 inactive; #2 -0.579 inactive; #3 -0.122 inactive; #4 -0.938 inactive

5 successive entries already listed, for reference:
log2 vehicle/camptothecin viability, by gene and reagent
APOE: #3 -0.197 inactive
FIBCD1: #1 -0.127 inactive; #2 -0.579 inactive; #3 -0.122 inactive; #4 -0.938 inactive

Next entries follow:
log2 vehicle/camptothecin viability, by gene and reagent
C17orf75: #1 0.098 inactive; #2 -0.107 inactive; #3 -0.493 inactive; #4 0.277 inactive
AP2M1: #1 -0.339 inactive; #2 -0.293 inactive; #3 -0.159 inactive
RPL13: #1 -0.138 inactive; #2 -0.357 inactive; #3 -0.14 inactive; #4 -0.477 inactive
TFRC: #1 -0.489 inactive; #2 -0.39 inactive; #3 -0.452 inactive; #4 -0.452 inactive; #5 -0.314 inactive; #6 -0.254 inactive
COL4A4: #1 -0.241 inactive; #2 -0.364 inactive; #3 0.455 inactive; #4 -0.303 inactive
BRAP: #1 -0.194 inactive; #2 -0.429 inactive; #3 -0.286 inactive; #4 -0.0361 inactive
AGRP: #1 1.26 active; #2 -0.533 active; #3 1.22 active
COG2: #1 1.75 inactive; #2 0.437 inactive; #3 0.161 inactive
DNTTIP2: #1 -0.507 inactive; #2 -0.535 inactive; #3 -0.403 inactive; #4 -0.645 inactive
OR2S2: #1 -0.0773 inactive; #2 -0.00502 inactive; #3 -0.29 inactive; #4 -0.143 inactive
CLCNKA: #1 -0.0228 inactive; #2 -0.424 inactive; #3 -0.475 inactive; #4 -0.259 inactive
ZNF335: #1 -0.12 inactive; #2 -0.109 inactive; #3 0.557 inactive; #4 -0.274 inactive
